The term Tmax denotes the time at which the peak concentration occurs.

Among the data in US11925653B2, “Combination therapy effective against microorganisms, including drug resistant microorganisms” (Fleurir ABX LLC, priority 2021, dated 2024) are Tmax values, retold here.

Structures are written as SMILES.

This data set in a line: representative pharmacokinetic parameters. The note with it: in vivo. The source says:
In many embodiments, the novel composition will be provided at a therapeutically effective amount, which refers to that amount of the novel composition on its whole which, when administered to a subject in need thereof, is sufficient to effect treatment of a symptom, a condition, or a disease of interest in the subject or as presented by the subject. The amount of an antibiotic composition of the invention which constitutes a “therapeutically effective amount” will vary depending on the antibiotic composition, the disease or condition, and its severity, and the age of the mammal to be treated, but can be determined routinely by one of ordinary skill in the art having regard to their own knowledge, and to this disclosure. The therapeutically effective amount may be modified by pharmacokinetic, and pharmacodynamic analysis as is understood in the field. In some embodiments, the novel composition may be provided prophylactically or preventatively or protectively, which may, in some instances, be at or below a therapeutically effective amount.

For the molecule `Cc1cc(NS(=O)(=O)c2ccc(N)cc2)no1` [sulfamethoxazole, N1-(5-methyl-3-isoxazolyl)sulfanilamide], the Tmax turned out to be 4 h.
